# Test results from publication PMC8729784.
# No constants are given. Whether binding was seen depends on the method and setting. In cells and extracts the contact can be indirect. Some results given as binding are weak or reduced against the parent protein; the word gives no strength.
# B1: VE-cadherin (protein, UniProt P55284 46-784)
# chain: DWIWNQMHIDEEKNESLPHYVGKIKSNVNRQNAKYVLQGEFAGKIFGVDANTGNVLAYERLDREKVSEYFLTALIVDKNTNKNLEQPSSFTVKVHDINDNWPVFSHQVFNASVPEMSAIGTSVIRVTAVDADDPTVAGHATVLYQIVKGNEYFSIDNSGLIFTKIKNLDREKQAEYKIVVETQDALGLRGESGTATVMIRLEDINDNFPVFTQSTYTFSVPEDIRVGKPLGFLTVVDPDEPQNRMTKYSIMQGEYRDTFTIETDPKRNEGIIKPTKSLDYEVIQQYTFYIEATDPTIRYEYLSSTSGKNKAMVTINVLDVDEPPVFQRHFYHFKLPENQKKPLIGTVVAKDPDKAQRSIGYSIRKTSDRGQFFRITKQGNIYNEKELDRETYAWYNLTVEANELDSRGNPVGKESIVQVYIEVLDENDNPPEFAQPYEPKVCENAAQGKLVVQISATDKDVVPVNPKFKFALKNEDSNFTLINNHDNTANITVKYGQFNREHAKFHYLPVLISDNGVPSLTGTSTLTVGVCKCNEQGEFTFCEEMAAQAGVSIQALVAIFLCILTITVITLLIILRRRIRKQAHAHSKSALEIHEQLVTYDEEGGGEMDTTSYDVSVLNSVRGGSTKPLRSTMDARPAVYTQVQKPPRLAPGLHGGPREMATMIDVKKEEADNDGGGPPYDTLHIYGYEGAESIAESLSSLSTNSSDSDIDYDFLNDWGPRFKMLAELYGSDPQEELII
# Biological target: T1, vinculin (mouse (endogenous in eEND cells and MDMVECs)) (UniProt Q64727)
# T1 sequence: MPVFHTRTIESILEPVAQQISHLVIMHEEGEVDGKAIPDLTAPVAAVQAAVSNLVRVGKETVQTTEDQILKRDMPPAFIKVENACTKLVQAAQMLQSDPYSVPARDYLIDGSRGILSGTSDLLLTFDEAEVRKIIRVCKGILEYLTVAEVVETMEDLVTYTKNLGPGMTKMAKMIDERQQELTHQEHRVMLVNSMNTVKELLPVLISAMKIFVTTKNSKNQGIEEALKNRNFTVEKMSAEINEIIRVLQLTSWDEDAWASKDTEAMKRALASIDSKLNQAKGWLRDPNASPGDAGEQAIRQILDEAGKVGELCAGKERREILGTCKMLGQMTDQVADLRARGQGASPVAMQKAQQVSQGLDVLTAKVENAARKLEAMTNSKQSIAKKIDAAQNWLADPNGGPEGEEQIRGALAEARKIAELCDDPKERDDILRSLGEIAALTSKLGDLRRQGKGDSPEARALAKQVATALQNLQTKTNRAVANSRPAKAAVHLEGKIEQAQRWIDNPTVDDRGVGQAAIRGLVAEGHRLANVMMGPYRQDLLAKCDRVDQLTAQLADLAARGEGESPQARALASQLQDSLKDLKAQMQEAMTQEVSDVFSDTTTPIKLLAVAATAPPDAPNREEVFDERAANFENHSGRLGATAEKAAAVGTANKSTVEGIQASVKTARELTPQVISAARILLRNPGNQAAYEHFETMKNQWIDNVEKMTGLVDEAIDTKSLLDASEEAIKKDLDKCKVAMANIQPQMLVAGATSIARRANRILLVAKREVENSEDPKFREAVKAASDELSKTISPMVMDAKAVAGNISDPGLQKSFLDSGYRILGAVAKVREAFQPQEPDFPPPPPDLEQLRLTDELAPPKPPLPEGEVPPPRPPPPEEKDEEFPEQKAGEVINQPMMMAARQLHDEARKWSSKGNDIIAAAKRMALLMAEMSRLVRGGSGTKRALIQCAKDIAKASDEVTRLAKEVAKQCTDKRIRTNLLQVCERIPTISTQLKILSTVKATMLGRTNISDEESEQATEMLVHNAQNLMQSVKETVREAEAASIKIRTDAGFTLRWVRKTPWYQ
# Assay: co-IP; anti-vinculin antibodies on Dynabeads, lysates of eEND cells or MDMVECs (1% Nonidet P-40, 25 mM Tris-HCl pH 7.4, 100 mM NaCl, 10 mM MgCl2, 10% glycerol), 1 h at 4°C, five washes; immunoblot for VE-cadherin
binder,measurement,value
B1,binding,binds weakly
